# Laboratory results: the supplement of paper PMC10735217
# Structures can show the parent of a compound that is named as a salt. The list shows a part of the results. Repeats in this data set agree poorly, so a single value says little.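 The human kidney-derived cells carry a stably integrated construct of eight TEAD-binding elements driving luciferase, read by luminescence in a drug-repurposing library screen. A compound counts as a hit when its signal is more than five robust Z scores above the plate mean.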
# Tested on: HEK293A TEAD-LUC reporter
# Experiment: TEAD-luciferase reporter activity (YAP activation), robust Z score vs plate; higher = stronger YAP/TEAD activation
# Settings: 24 h
Structure (SMILES),TEAD-luciferase reporter activity (compound concentration: 200 nM),TEAD-luciferase reporter activity (compound concentration: 2 uM),TEAD-luciferase reporter activity (compound concentration: 10 uM)
CC(C)n1c(/C=C/C(O)CC(O)CC(=O)O)c(-c2ccc(F)cc2)c2ccccc21 (configuration not stated) [fluvastatin],inactive: -1.3,inactive: -0.908,inactive: 0.162
CO[C@@H]1[C@@H](OC(N)=O)[C@@H](O)[C@H](Oc2ccc3c(O)c(NC(=O)c4ccc(O)c(CC=C(C)C)c4)c(=O)oc3c2C)OC1(C)C [Novobiocin sodium],inactive: -0.456,inactive: -1.62,inactive: -0.574
CCCCCC(O)c1cccc(OCc2ccc3ccccc3n2)c1 (configuration not stated),inactive: 0.0477,inactive: -0.585,inactive: 1.12
CCN1CCN(CCC(=O)Nc2ccccc2C)CC1,inactive: -2.29,inactive: 2.3,inactive: -1.04
CCCCCCCCC#CCC#CCC#CCCCC(=O)NCCOCCO,inactive: -1.29,inactive: -0.576,inactive: 0.646
O=S(=O)(Nc1ccc(CCNC[C@@H](O)c2cccnc2)cc1)c1ccc(-c2nc(-c3ccc(C(F)(F)F)cc3)cs2)cc1,inactive: 1.65,inactive: -1.16,inactive: -0.706
Cc1cc(C)c(NC(=O)C(C)(C)C)c2c1CCN2CC1CC1,inactive: -1.22,inactive: 4.03,inactive: 3.27
NC1CCN(c2cccc(Br)n2)CC1,inactive: -0.94,inactive: 2.88,inactive: 0.231
CC(=O)NCCC(=O)N1Cc2ccccc2CC2(CCCN2CC2CCNCC2)C1 (configuration not stated),inactive: 1.12,–,–
CC(c1cc2ccccc2s1)N(O)C(N)=O (configuration not stated),inactive: 3.64,–,inactive: 1.35
CC(c1cc2ccccc2s1)N(O)C(N)=O (configuration not stated) [zileuton],–,inactive: -2.2,–
O=C(O)c1ccc(-n2nc(-c3ccccc3O)nc2-c2ccccc2O)cc1 [deferasirox],inactive: -0.749,inactive: -2.48,inactive: 0.672
OC(c1ccccc1)(c1ccccc1)C1CC1,inactive: -0.716,inactive: -1.68,inactive: -0.868
CC(C)=C/C(C)=N/N=c1\[nH]ncc2ccccc12,inactive: -1.46,inactive: -0.75,inactive: 3.06
NS(=O)(=O)c1cc2c(cc1Cl)NC(c1ccccc1)NC2=O (configuration not stated) [fenquizone],inactive: 0.517,inactive: -1.15,inactive: 0.25
O=C1[C@@H]2[C@H]3C=C[C@H]([C@@H]4C=C[C@@H]43)[C@@H]2C(=O)N1CCCCN1CCN(c2ncccn2)CC1,inactive: -1.36,inactive: -1.52,inactive: -1.92
CC(=O)N[C@H](CCCNC(=N)N)C(=O)N[C@H](CCCNC(=N)N)C(=O)N[C@H](CCCNC(=N)N)C(=O)N[C@H](CCCNC(=N)N)C(=O)N[C@H](CCCNC(=N)N)C(=O)N[C@H](CCCNC(=N)N)C(=O)N[C@H](CCCNC(=N)N)C(=O)N[C@H](CCCNC(=N)N)C(=O)N[C@H](CCCNC(=N)N)C(N)=O [ALX 40-4C Trifluoroacetate],inactive: -0.981,–,inactive: 2.01
C=CC(=O)N[C@H]1CCOC[C@H]1Nc1ncc2cc(-c3c(Cl)c(OC)cc(OC)c3Cl)ccc2n1,inactive: -0.827,inactive: -2.17,inactive: -0.714
"O=C(O)c1ccc(OCCCOc2ccc(C(=O)O)cc2)cc1 [drug delivery system, MIT]",inactive: 0.632,inactive: -1.02,inactive: 0.406
CO[C@H]1[C@H](O)[C@H](O)[C@H](OC2[C@H](C(=O)O)O[C@@H](C)[C@@H](O)[C@H]2O)O[C@@H]1C(=O)O (some centres not stated) [Alginic Acid],inactive: -0.238,inactive: -0.438,inactive: -0.412
Cc1c(OC(=O)c2ccc(N)cc2)c(O)c2ccccc2c1O [Aminaftone],inactive: 0.171,inactive: -0.773,inactive: -0.579
CN(C)C(=O)COC1c2ccccc2CCc2ccccc21,inactive: 0.454,inactive: -0.0786,inactive: 2.88
[O]=[Bi] [Bismuth(III) oxy iodide],inactive: -0.215,–,inactive: 0.224
C[n+]1c2cc(N)ccc2cc2ccc(N)cc21.Nc1ccc2cc3ccc(N)cc3nc2c1 [Acriflavine],inactive: 0.518,active: 10.7,inactive: 0.145
NC(=O)NNc1ccccc1,active: 5.65,inactive: 0.966,inactive: -0.534
Cc1cccc(/C=N/Nc2cc(N3CCOCC3)n3nc(-c4ccncc4)cc3n2)c1,inactive: 0.201,inactive: -0.602,inactive: 0.456
CC(C)(O)CNc1nc(Nc2ccnc(C(F)(F)F)c2)nc(-c2cccc(C(F)(F)F)n2)n1 [Enasidenib],inactive: -1.33,inactive: -0.955,inactive: -1.36
Cc1cccc(C)c1NC(=O)C1CCCN(C)C1 (configuration not stated),inactive: 1.74,inactive: 0.788,inactive: -0.244

Structure (SMILES),TEAD-luciferase reporter activity (compound concentration: 200 nM),TEAD-luciferase reporter activity (compound concentration: 2 uM),TEAD-luciferase reporter activity (compound concentration: 10 uM)
O=C1NC2(CCN(CC3CCCC3)CC2)Oc2ccccc21,inactive: -0.728,–,inactive: 0.45
COc1cccc2c1C(=O)c1c(O)c3c(c(O)c1C2=O)C[C@@](O)(C(=O)CO)C[C@@H]3OC1CC(N)C(OC2CCCCO2)C(C)O1 (some centres not stated) [pirarubicin],inactive: -0.264,inactive: -3.03,inactive: 3.16
Cc1cnc(C(=O)c2ncnc3[nH]ccc23)c(NS(=O)(=O)c2ccc(Cl)c(C(F)(F)F)c2)c1,inactive: -1.5,inactive: -1.43,inactive: 0.481
CC(C)(O)c1ccc2c(c1)C(=CCCN1CCC(O)(c3ccc(Cl)cc3)C(C)(C)C1)c1cccnc1CO2 (configuration not stated) [analog of MLN-3897],–,inactive: 0.184,–
CC(C)(O)c1ccc2c(c1)C(=CCCN1CCC(O)(c3ccc(Cl)cc3)C(C)(C)C1)c1cccnc1CO2 (configuration not stated),inactive: -0.48,–,inactive: -0.599
CCN1c2ccc(C(c3ccccc3)(c3ccccc3)c3ccccc3)cc2C(C)=CC1(C)C,inactive: -0.00982,inactive: -0.566,inactive: 4.02
O=C(O)c1cc(NC(=O)[C@H](Cc2ccccc2F)NC(=O)c2cc3[nH]cnc3cc2C(=O)NCC2CCCCCC2)cc(C(=O)O)c1,inactive: -1.48,inactive: 2.38,inactive: -0.559
CC(Oc1ccc2c(c1)Oc1ccccc1S2(=O)=O)C(F)(F)F (configuration not stated),inactive: 0.318,inactive: 0.91,inactive: 0.445
CC(=O)NCC(=O)N1Cc2ccccc2CC2(CCCN2CC2CCNCC2)C1 (configuration not stated),inactive: 0.654,–,inactive: 0.329
O=C(O)C1CCc2cc(OCCn3ccnc3)ccc21 (configuration not stated) [Camonagrel hydrochloride],inactive: 0.432,inactive: -0.575,inactive: 0.776
COc1cc(-c2nc(NC(=O)c3cc4cc(C)cc(C)c4n3CC(=O)O)sc2CCC2CCCCC2)c(OC)cc1Cl,inactive: -0.0653,inactive: -1.3,inactive: -2.1
Cc1noc(C)c1-c1cc(C(O)(c2ccccn2)c2ccccn2)c2nc(C3CC3)[nH]c2c1,active: 7.22,active: 10.6,active: 17.9
c1ccc2[nH]ncc2c1 [indazole],–,inactive: 0.664,–
c1ccc2[nH]ncc2c1,inactive: 0.204,–,inactive: 0.259
Cc1nc2c(OCc3c(Cl)ccc(N(C)C(=O)CNC(=O)/C=C/c4ccc(C(=O)N(C)C)cc4)c3Cl)cccn2c1Br,inactive: -0.257,inactive: -1.08,inactive: -1.98
COCCC(=O)NC1CCC(CCN2CCN(c3cccc(C#N)c3)CC2)CC1 (configuration not stated),inactive: -1.16,inactive: 0.381,inactive: 1.69
O=C(Nc1nc(-c2cc(Cl)cs2)c(N2CCN(C3CCCCC3)CC2)s1)c1cnc(N2CCC(C(=O)O)CC2)c(Cl)c1,inactive: -1.25,inactive: -0.483,inactive: 0.269
Nc1ccc(S(=O)(=O)Nc2ncccn2)cc1,inactive: 0.707,inactive: -0.338,inactive: -0.342
O=C(O)CCNC(=O)C(CS)Cc1ccccc1 (configuration not stated),inactive: -0.174,inactive: -0.72,inactive: 0.978
O=C(c1ccc(O)c(F)c1)N(c1ccc(O)cc1)c1ccc(F)cc1,inactive: -0.52,inactive: -1.02,inactive: 0.361
Cc1cc(OCCCNCC(C)(C)C(N)=O)ccc1Cc1c(O[C@@H]2O[C@H](CO)[C@@H](O)[C@H](O)[C@H]2O)n[nH]c1C(C)C,inactive: -1.51,inactive: -1.06,inactive: -0.237
CC(C)(C)C(=O)CN1CC2CN(CCCNc3ccc(C#N)cc3)CC(C1)O2,inactive: 0.116,inactive: -0.527,inactive: -1.59
CCc1ccc(OCc2ccccc2C(=O)Nc2ccc3nc(C)cc(N)c3c2)cc1,inactive: -1.13,inactive: 0.476,inactive: 1.73
CCOC(=O)N(c1cccc(C(=O)c2ccccc2)c1)S(=O)(=O)C(F)(F)F,inactive: -0.69,inactive: -0.497,inactive: 4.19
CC(O)C(O)C1CNc2nc(N)[nH]c(=O)c2N1 (configuration not stated) [Pharmaprojects No. 1815],inactive: -0.778,inactive: 0.457,inactive: 1.16
CCCCCCCCCCCCCCCCOP(=O)(O)OCC[N+](C)(C)C [Miltefosin],–,–,inactive: 3.26
C[C@@H](O)[C@H]1C(=O)N2C(C(=O)[O-])=C(SC3Cn4cnc[n+]4C3)[C@H](C)[C@H]12 (some centres not stated) [Biapenem],inactive: 1.82,–,inactive: 1.7

# Retrieved one by one from the list above (4):
Structure (SMILES),TEAD-luciferase reporter activity (compound concentration: 200 nM),TEAD-luciferase reporter activity (compound concentration: 2 uM),TEAD-luciferase reporter activity (compound concentration: 10 uM)
Nc1ccc(S(=O)(=O)Nc2ncccn2)cc1,inactive: 0.707,inactive: -0.338,inactive: -0.342
c1ccc2[nH]ncc2c1 [indazole],–,inactive: 0.664,–
O=C(O)CCNC(=O)C(CS)Cc1ccccc1 (configuration not stated),inactive: -0.174,inactive: -0.72,inactive: 0.978
CCOC(=O)N(c1cccc(C(=O)c2ccccc2)c1)S(=O)(=O)C(F)(F)F,inactive: -0.69,inactive: -0.497,inactive: 4.19
